Test results taken from patent US20170362283A1, “NISIN-BASED COMPOUNDS AND USE THEREOF IN THE TREATMENT OF BACTERIAL INFECTIONS” (UNIVERSITEIT UTRECHT HOLDING B.V., priority 2015, published 2017).
Part of at least one peptide drawing is inferred or uncertain, most often the ends. For part of these data: At least one compound was matched to its structure with a doubt left. Some compounds share one wording; it may come from a single statement. Some entries share one result that the patent states for a list of compounds.

Key:
E. faecium E980 = experiment: BioScreen growth assay for E. faecium E980; type: cell-based; details: 5 μM
Description: (§1) A BioScreen C instrument (Oy Growth Curves AB, Helsinki, Finland) was used to monitor effects of the compounds (6), (10), and (12) and the effect of compound (24) with R1-group (e), or Comparative compound B (nisin) on E. faecium growth (each compound administered at a fixed concentration 5 μM). E. faecium strains were inoculated at an initial OD660 of 0.05 into 300 μl TSB containing 1% DMSO and 1% glucose or into the same medium containing the antibiotic compounds at a final concentration of 5 μM. […]
(§2) The E. faecium strains used in these experiments are E. faecium E745 (vancomycin-ampicillin resistant hospital outbreak strain), E. faecium E980 (vancomycin-ampicillin susceptible human commensal isolate), E. Faecium E1133 (vancomycin-ampicillin resistant hospital outbreak strain), and E. faecium E1162 (vancomycin-susceptible ampicillin-resistant clinical isolate). The BioScreen growth assays for each strain was determined for the compounds (6), (10), (12) and also for compound (24) with R1-group (e) as well as nisin (Comparative compound B) and compared to non-treated strains, the results being shown in the Tables 9 to 12 below.

Serum stability = type: in vitro ADME; details: 37° C., after 24 hours
Description: 2 mg/mL peptide solutions were prepared in 26% DMSO in MilliQ. Duplicate samples were prepared with […] peptide solution and […] human serum, making the final DMSO concentration 2%. The samples were incubated at 37° C., and samples were taken at t=0, 1, 2, 4 and 24 hours as follows: to 100 μL serum solution, 200 μL MeOH (containing 0.075 mg/mL ethylparaben as an internal standard) was added to precipitate the proteins. The sample was vortexed briefly and allowed to stand for 10 min at RT. The samples were then centrifuged at 13,000 rpm for 5 min, and the supernatant was taken and stored at −20° C. until analysis. Each sample was analyzed by HPLC on a C4 column. The peaks were integrated and normalized to the internal standard.

[1] = Lipid II-binding in model membranes (carboxyfluorescein efflux from LUVs); type: biochemical; details: for dye leakage on treatment with the compound alone: CF-loaded DOPC LUVs with 0.2% lipid II; for competition assay: antagonism of nisin induced membrane leakage: concentration 10-fold higher than nisin (nisin 5 nM)
Description: Large unilamellar vesicles (LUVs), composed of 1,2-dioleoyl-sn-glycero-3-phosphocholine (DOPC) spiked with 0.2% lipid II, were loaded with carboxyfluorescein (CF). The CF efflux was monitored by measuring the increase in fluorescence intensity at 515 nm, with excitation at 492 nm. In a cuvette, a solution (1 mL) of CF-loaded vesicles (20 μM final concentration) in buffer (Tris.HCl, pH 7.0 containing 100 mM NaCl) was prepared and the relevant final concentration of compounds (6), (10), and (12), and also compound (24) with R1-group (e), were added and the mixture was stirred for 1 min and the fluorescence was recorded (A0). After ca. 10 seconds, nisin (comparative compound B) was added (5 nM final concentration) and the fluorescence was followed until it stabilized, then recorded (Astable). Total membrane leakage was induced by the addition of Triton-X100 (final concentration 0.1%) and the fluorescence was recorded (Atotal). The percentile values were calculated by: […]

E. faecium E1133 = experiment: BioScreen growth assay for E. faecium E1133; type: cell-based; details: 5 μM
Description: as §1, §2

E. faecium E1162 = experiment: BioScreen growth assay for E. faecium E1162; type: cell-based; details: 5 μM
Description: as §1, §2

[2] = tested on: all tested E. faecium strains; experiment: BioScreen growth assays, conclusion over all tested E. faecium strains; type: cell-based; details: 5 μM, strains E745, E980, E1133, E1162
E. faecium E745 = experiment: BioScreen growth assay for E. faecium E745; type: cell-based; details: 5 μM
Description: as §1, §2

| Compound | OD600 (E. faecium E980; time 0 h) | OD600 (E. faecium E980; time 4 h) | OD600 (E. faecium E980; time 8 h) | OD600 (E. faecium E980; time 12 h) | OD600 (E. faecium E980; time 16 h) | dye leakage on treatment with the compound alone [1] | competition assay: antagonism of nisin induced membrane leakage [1] | OD600 (E. faecium E1133; time 0 h) | OD600 (E. faecium E1133; time 4 h) | OD600 (E. faecium E1133; time 8 h) | OD600 (E. faecium E1133; time 12 h) | OD600 (E. faecium E1133; time 16 h) | OD600 (E. faecium E1162; time 0 h) | OD600 (E. faecium E1162; time 4 h) | growth inhibition of E. faecium strains (conclusion) [2] | OD600 (E. faecium E745; time 0 h) | OD600 (E. faecium E745; time 4 h) | OD600 (E. faecium E745; time 8 h) | OD600 (E. faecium E745; time 12 h) | OD600 (E. faecium E745; time 16 h) | also measured |
| --- | --- | --- | --- | --- | --- | --- | --- | --- | --- | --- | --- | --- | --- | --- | --- | --- | --- | --- | --- | --- | --- |
| C=C1NC(=O)[C@H]([C@@H](C)CC)NC(=O)[C@H](NC(=O)C(=CC)NC(=O)[C@@H](N)[C@@H](C)CC)CSC[C@@H](C(=O)N[C@H]2C(=O)N3CCC[C@H]3C(=O)NCC(=O)N[C@H](C(=O)N[C@@H](CCCCN)C(=O)NCCCCCCCCCC)CS[C@H]2C)NC(=O)[C@H](CC(C)C)NC1=O [(6)] | 0.01733 | 0.464 | 0.9137 | 0.886 | 0.8497 | did not show any detectable dye leakage | effectively antagonized nisin induced membrane leakage | 0.016 | 0.2267 | 0.6663 | 0.6653 | 0.629 | 0.01367 | 0.194 | very good growth inhibition performances | 0.012 | 0.06933 | 0.5757 | 0.6853 | 0.679 | stability in human serum, remained intact (Serum stability): above 50%; OD600 (E. faecium E1162; time 8 h): 0.6713; OD600 (E. faecium E1162; time 12 h): 0.6787; OD600 (E. faecium E1162; time 16 h): 0.6657 |
| C=C1NC(=O)[C@H]([C@@H](C)CC)NC(=O)[C@H](NC(=O)C(=CC)NC(=O)[C@@H](N)[C@@H](C)CC)CSC[C@@H](C(=O)N[C@H]2C(=O)N3CCC[C@H]3C(=O)NCC(=O)N[C@H](C(=O)N[C@@H](CCCCN)C(=O)NCCCCCCCCCCCCCC)CS[C@H]2C)NC(=O)[C@H](CC(C)C)NC1=O [(10)] | 0.01833 | 0.015 | 0.01433 | 0.01367 | 0.01367 | did not show any detectable dye leakage | effectively antagonized nisin induced membrane leakage | 0.017 | 0.01267 | 0.01167 | 0.01167 | 0.011 | 0.019 | 0.01367 | very good growth inhibition performances | 0.01533 | 0.012 | 0.01167 | 0.01167 | 0.01133 | OD600 (E. faecium E1162; time 8 h): 0.013; OD600 (E. faecium E1162; time 12 h): 0.01267; OD600 (E. faecium E1162; time 16 h): 0.01233 |
| C=C1NC(=O)[C@H]([C@@H](C)CC)NC(=O)[C@H](NC(=O)C(=CC)NC(=O)[C@@H](N)[C@@H](C)CC)CSC[C@@H](C(=O)N[C@H]2C(=O)N3CCC[C@H]3C(=O)NCC(=O)N[C@H](C(=O)N[C@@H](CCCCN)C(=O)NC/C=C(\C)CC/C=C(\C)CCC=C(C)C)CS[C@H]2C)NC(=O)[C@H](CC(C)C)NC1=O [(12)] | 0.01733 | 0.012 | 0.013 | 0.01667 | 0.02733 | did not show any detectable dye leakage | effectively antagonized nisin induced membrane leakage | 0.01667 | 0.01033 | 0.01367 | 0.02667 | 0.1243 | 0.017 | 0.011 | very good growth inhibition performances | 0.01533 | 0.009 | 0.008667 | 0.009667 | 0.01 | OD600 (E. faecium E1162; time 8 h): 0.01233; OD600 (E. faecium E1162; time 12 h): 0.01667; OD600 (E. faecium E1162; time 16 h): 0.02567 |
| C=C1NC(=O)[C@H]([C@@H](C)CC)NC(=O)[C@H](NC(=O)C(=CC)NC(=O)[C@@H](N)[C@@H](C)CC)CSC[C@@H](C(=O)N[C@H]2C(=O)N3CCC[C@H]3C(=O)NCC(=O)N[C@H](C(=O)N[C@@H](CCCCN)C(=O)NCCCn3cc(CNC(=O)c4ccc(-c5ccc(-c6ccccc6)cc5)cc4)nn3)CS[C@H]2C)NC(=O)[C@H](CC(C)C)NC1=O [Compound (24) with R1-group (e)] | – | – | – | – | – | – | – | 0.01667 | 0.02467 | 0.1023 | 0.403 | 0.514 | – | – | very good growth inhibition performances | 0.015 | 0.01367 | 0.01767 | 0.02267 | 0.031 | – |
